Laboratory results: patent US20260207623A1, “USE OF ESTETROL IN HEPATICALLY IMPAIRED PATIENTS” (ESTETRA SRL, priority 2022, published 2026)

What was measured:
post-menopausal women [1] = assay: Example 2 dose-finding study: Hot Flush Weekly Weighted Score; format: in vivo, human; settings: for Hot Flush Weekly Weighted Score, relative change, difference with placebo, p_value: vs placebo and ineffective doses 2.5 and 5 mg grouped together
Experimental: Further, the terms “Hot Flush Weekly Weighted Score”, as used herein, corresponds to a score taking into account frequency and severity which is calculated by using the severity score (as calculated above): [(1×No. of mild VMS)+(2×No. of moderate VMS)+(3×No. of severe VMS)] during a 7 day period.
(§1) All treatments (Estetrol, hereinafter E4 as monohydrate, [2.5 mg, 5 mg, 10 mg, 15 mg] capsule) were administered once daily (QD) per os for at least 12 consecutive weeks until the last biological assessments (Day 91 maximum) had been performed.
A further analysis of the results was thus prepared, where data from these two doses were grouped with the placebo dose and compared to the 10 mg and 15 mg estetrol monohydrate doses.

post-menopausal women [2] = assay: Example 2 dose-finding study: weekly frequency of moderate to severe VMS (absolute and relative change, responders); format: in vivo, human; settings: vs placebo and ineffective doses 2.5 and 5 mg grouped together
Text: Enrolment was approximately 18 months. Individual subject participation was up to 27 weeks: up to 6 weeks pre-screening and washout, up to 4 weeks screening and run-in period, up to 91 days (13 weeks) of E4 monohydrate or placebo treatment followed by 2 weeks (14 days) of progestin therapy and a Follow up visit 1 week after completion of progestin therapy in non-hysterectomied subjects only.
To define the minimum effective dose (MED) of the oral dose of E4 by evaluating changes in frequency and in severity of moderate to severe vasomotor symptoms (VMS).
This was a prospective, multicentre, randomised, placebo-controlled, double-blinded, dose-finding study.
Eligible subjects were hysterectomied and non-hysterectomied post-menopausal women aged 40 to 65 years, inclusive, presenting at least 7 moderate to severe hot flushes/day or at least 50 moderate to severe hot flushes/week.
as §1
In order to analyse the data recorded in this study, treatment groups have been compared using an ANCOVA (analysis of covariance) with respect to the change in weekly frequency of moderate to severe VMS from baseline to weeks 4 and 12. The ANCOVA model includes treatment (“trt1”) and study centre (“SITEPOOL”) as a fixed effect and baseline (“base”) as a covariate.
VMS frequency was also studied by grouping patients according to their degree of response.

SMILES: C[C@]12CC[C@@H]3c4ccc(O)cc4CC[C@H]3[C@@H]1[C@@H](O)[C@@H](O)[C@@H]2O [E4 monohydrate, estetrol monohydrate]
- Hot Flush Weekly Weighted Score, absolute change, difference with placebo, p_value (post-menopausal women [1]; 2.5 mg daily, week 4): 0.9970
- Hot Flush Weekly Weighted Score, relative change, differences with placebo, p_value (post-menopausal women [1]; 2.5 mg daily, week 4): 1.0000
- Hot Flush Weekly Weighted Score, absolute change, difference with placebo, p_value (post-menopausal women [1]; 2.5 mg daily, week 12): 0.5176
- Hot Flush Weekly Weighted Score, relative change, differences with placebo, p_value (post-menopausal women [1]; 2.5 mg daily, week 12): 0.6744
- Hot Flush Weekly Weighted Score, absolute change, difference with placebo, p_value (post-menopausal women [1]; 5 mg daily, week 4): 0.7205
- Hot Flush Weekly Weighted Score, relative change, differences with placebo, p_value (post-menopausal women [1]; 5 mg daily, week 4): 0.8833
- Hot Flush Weekly Weighted Score, absolute change, difference with placebo, p_value (post-menopausal women [1]; 5 mg daily, week 12): 0.8780
- Hot Flush Weekly Weighted Score, relative change, differences with placebo, p_value (post-menopausal women [1]; 5 mg daily, week 12): 0.8871
- Hot Flush Weekly Weighted Score, absolute change, difference with placebo, p_value (post-menopausal women [1]; 10 mg daily, week 4): 0.9147
- Hot Flush Weekly Weighted Score, relative change, differences with placebo, p_value (post-menopausal women [1]; 10 mg daily, week 4): 0.6745
- Hot Flush Weekly Weighted Score, relative change, difference with placebo, p_value (post-menopausal women [1]; 10 mg daily, week 4): 0.4167
- Hot Flush Weekly Weighted Score, absolute change, difference with placebo, p_value (post-menopausal women [1]; 10 mg daily, week 12): 0.9785
- Hot Flush Weekly Weighted Score, relative change, differences with placebo, p_value (post-menopausal women [1]; 10 mg daily, week 12): 0.7861
- Hot Flush Weekly Weighted Score, relative change, difference with placebo, p_value (post-menopausal women [1]; 10 mg daily, week 12): 0.1404
- Hot Flush Weekly Weighted Score, absolute change, difference with placebo, p_value (post-menopausal women [1]; 15 mg daily, week 4): 0.0485
- Hot Flush Weekly Weighted Score, relative change, differences with placebo, p_value (post-menopausal women [1]; 15 mg daily, week 4): 0.0267
- Hot Flush Weekly Weighted Score, relative change, difference with placebo, p_value (post-menopausal women [1]; 15 mg daily, week 4): 0.00178
- Hot Flush Weekly Weighted Score, absolute change, difference with placebo, p_value (post-menopausal women [1]; 15 mg daily, week 12): 0.0951
- Hot Flush Weekly Weighted Score, relative change, differences with placebo, p_value (post-menopausal women [1]; 15 mg daily, week 12): 0.0276
- Hot Flush Weekly Weighted Score, relative change, difference with placebo, p_value (post-menopausal women [1]; 15 mg daily, week 12): 0.00097
- Weekly frequency of moderate to severe VMS, relative change, difference with placebo, p_value (post-menopausal women [2]; 10 mg daily, week 4): 0.2615
- Weekly frequency of moderate to severe VMS, relative change, difference with placebo, p_value (post-menopausal women [2]; 10 mg daily, week 12): 0.1798
- Weekly frequency of moderate to severe VMS, relative change, difference with placebo, p_value (post-menopausal women [2]; 15 mg daily, week 4): 0.00218
- Weekly frequency of moderate to severe VMS, relative change, difference with placebo, p_value (post-menopausal women [2]; 15 mg daily, week 12): 0.00099

Some values come without a unit; they compare only within their column.
